Consider 35 compounds from PubChem BioAssay AID1487 (National Center for Advancing Translational Sciences (NCATS), 2009).

The list shows a part of the results. These are further read-outs of the screen, such as a control signal, another cell line or another target. No call is given for them. Compounds called inactive in the main read-out are mostly missing here. Potencies come from curve fits of mixed quality, noted in brackets.

One may read the AC50 as the concentration at which the activity in the assay is half-maximal.

The nature of this assay: qHTS Assay for Modulators of Lamin A Splicing. Conditions: HeLa LMNA splicing GFP/RFP minigene ratio, 48 h. In outline:
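S3 HeLa cells stably expressing lamin A-EGFP splicing minigene plus DsRed2, 600 cells/well, 48 h compound exposure at 37C. Laser-scanning cytometry; analysed as GFP (500-530 nm)/RFP (575-640 nm) total intensity ratio; 0.5% DMSO vehicle.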

Where [1] appears, read: measured here: GFP splicing reporter channel.
Setting [2] is: measured here: RFP viability control channel.

As for `O=CNCC(=O)NCCc1ccc(Cl)cc1`, the AC50 by setting is: under setting [1], 0.501 µM [falling, partial curve, poor fit]; under setting [2], 0.562 µM [falling, partial curve, poor fit].
On to `CCc1ccc(OCc2n[nH]c(=S)n2C(C)CCCC(C)C)cc1` (stereo not drawn), for which the AC50 is, setting by setting: under setting [1], 35.5 µM [falling, single point]; under setting [2], 22.4 µM [falling, single point].
Regarding `CN(N=O)C(=O)N[C@H]1[C@@H](O)[C@H](O)[C@H](CO)O[C@@H]1O`, the AC50 under setting [1] is 0.00224 µM [falling, full curve, poor fit] and the AC50 under setting [2] is 2.82 µM [rising, full curve, poor fit].
Regarding `CCn1ncc(C2=NOC(C(=O)Nc3c(C)nn(Cc4ccc(F)cc4)c3C)C2)c1C` (stereo not drawn), the AC50 under setting [2] is 35.5 µM [rising, single point].
In the case of `CCOC(=O)CC(NS(=O)(=O)c1ccc2[nH]c3c(c2c1)CCCC3)c1ccccc1Cl` (stereo not drawn), the AC50 runs as follows: under setting [1], 0.112 µM [falling, full curve, poor fit]; under setting [2], 1 µM [falling, partial curve].
Turning to `Fc1ccc(C(Nc2ccccn2)c2c[nH]c3ccccc23)cc1` (stereo not drawn), the AC50 under setting [1] is 10 µM [falling, partial curve].
As for `COC(=O)c1[nH]nc(C(=O)OC(C)(C)C)c1-c1ccccc1`, the AC50 was 15.8 µM [rising, single point] under setting [1] and 35.5 µM [rising, single point] under setting [2].
As for `O=C(CSc1nnnn1Cc1ccccc1)c1ccccc1`, under setting [2], the AC50 is 3.55 µM [falling, single point].
For `COC(=O)c1c(-c2ccc(Cl)cc2)noc1N1CCN(c2ccc(C)cc2C)CC1`, the AC50 under setting [1] is 14.1 µM [falling, partial curve].
For `COc1ccc(OCc2cccc(C(=O)NN)c2)cc1`, under setting [2], the AC50 was 0.0891 µM [falling, full curve, poor fit].
As to `COC(=O)C1=C(O)/C(=C\c2ccc(CNS(=O)(=O)c3ccccc3)o2)N=C1C`, the AC50 under setting [1] is 4.47 µM [falling, single point].
In the case of `O=C(Nc1ccccc1)c1nnsc1S(=O)(=O)c1ccc(Cl)cc1`, the AC50 under setting [1] was 4.47 µM [falling, partial curve, poor fit].
For `O=C(Nc1ccc(N2CCN(C(=O)c3ccccc3)CC2)c(Cl)c1)c1cccnc1`, under setting [2], the AC50 was 11.2 µM [rising, single point].
Regarding `Cc1ccc2nc(N(Cc3cccnc3)C(=O)COc3ccccc3)sc2c1`, the AC50 is 4.47 µM [falling, full curve] under setting [1] and 4.47 µM [falling, full curve, poor fit] under setting [2].
With `COCCNc1ncnc2ccc(-c3c(C)noc3C)cc12`, under setting [1], the AC50 is 0.794 µM [falling, full curve].
As to `O=C(CSc1ccc(-c2ccc(Br)cc2)nn1)N1CCOCC1`, the AC50 under setting [2] was 0.00316 µM [falling, full curve, poor fit].
Regarding `Cc1cccc(N2CCN(CCNC(=O)C3COc4ccccc4C3)CC2)c1C` (stereo not drawn), under setting [1], the AC50 is 12.6 µM [falling, single point].
`COc1ccc(-c2nnc(SCc3nc4ccccc4s3)n2C(C)C)cc1`: the AC50 under setting [2] was 10 µM [rising, partial curve, poor fit].
`Cc1ccc(CNC(=O)c2cc3c(=O)n4ccccc4nc3n(Cc3ccco3)c2=N)cc1`: the AC50 is 10 µM [rising, partial curve] under setting [1] and 10 µM [rising, partial curve, poor fit] under setting [2].
Take `O=C(NC1CC(=O)N(c2cccc(F)c2)C1)c1ccc(Br)o1` (stereo not drawn): under setting [2], the AC50 is 0.00316 µM [falling, full curve, poor fit].
Regarding `CCCCCc1nnc(NC(=O)C2COc3ccccc3O2)s1` (stereo not drawn), the AC50 under setting [1] was 0.708 µM [rising, single point].
`Cc1ccccc1-c1nsc(SCC(=O)Nc2ccc3c(c2)OCO3)n1`: the AC50 under setting [2] is 0.794 µM [rising, partial curve, poor fit].
For `O=C(NC1CCCCC1)c1sc(N2CCOCC2)nc1-c1ccccc1`, the AC50 under setting [2] is 0.0251 µM [rising, full curve, poor fit].
With `Cn1nnnc1Sc1ncnc2scc(-c3ccc(F)cc3)c12`, the AC50 under setting [1] is 3.16 µM [rising, single point].
Turning to `O=C(Oc1ccc(OC(=O)N2CCCCC2)cc1)N1CCCCC1`, the AC50 under setting [1] is 0.891 µM [rising, full curve, poor fit].
As to `O=C(CSC1=NC2(CCCCC2)N=C1c1ccccc1)Nc1ccc2c(c1)OCCO2`, under setting [2], the AC50 was 35.5 µM [rising, single point].
With `Nc1nc(-c2ccccc2)c(N=Nc2cccc3ccccc23)s1`, the AC50 was 12.6 µM [rising, partial curve] under setting [1] and 17.8 µM [rising, partial curve] under setting [2].
Consider `Cc1ccc(C(C)C)cc1OCC(=O)N/N=C/c1ccc2c(c1)OCCO2`, for which the AC50 under setting [1] is 7.08 µM [rising, partial curve] and the AC50 under setting [2] is 12.6 µM [rising, partial curve].
Turning to `CN(c1ccccc1)S(=O)(=O)c1cccc(NC(=O)c2cc(=O)c3ccccc3o2)c1`, the AC50 under setting [1] was 17.8 µM [rising, single point].
`COc1cc(/C=C/C(=O)c2cccc([N+](=O)[O-])c2)cc(OC)c1OC`: the AC50 under setting [1] was 35.5 µM [falling, single point] and the AC50 under setting [2] is 35.5 µM [falling, single point].
In the case of `O=C(NCc1ccc2c(c1)OCO2)c1ccc(S(=O)(=O)N2CCOCC2)cc1`, the AC50 is, setting by setting: under setting [1], 0.0631 µM [falling, full curve]; under setting [2], 0.0562 µM [falling, full curve, poor fit].
For `O=c1sc2ccccc2n1Cc1ccccc1`, the AC50 under setting [1] was 22.4 µM [falling, partial curve, poor fit].
With `CN(C)CC(C(=O)c1ccccc1)c1ccccc1` (stereo not drawn), the AC50 is 3.55 µM [falling, full curve, poor fit] under setting [1] and 3.55 µM [rising, single point] under setting [2].
As for `CCCCC1=CC2=C(c3ccco3)C(=O)C(C)(OC(=O)c3ccc(OC)cc3)C(=O)C2=CN1CC(C)C` (stereo not drawn), under setting [1], the AC50 is 0.0126 µM [rising, full curve, poor fit].
Consider `Cc1ccc(-n2nc(C)c(NC(=O)CCl)c2C)cc1`, for which the AC50 under setting [1] was 10 µM [falling, partial curve, poor fit] and the AC50 under setting [2] was 10 µM [falling, partial curve].
